Results: patent US20150190479A1, “DELIVERY OF CHOLESTERYL ESTER TO STEROIDOGENIC TISSUES” (ALPHACORE PHARMA, LLC, priority 2010, published 2015)
Some of these results come from one statement about several compounds together.

Assay: HDL-C level of a patient after treatment (illustrative patient examples)
Assay type: in vivo, human
Settings: car accident victim with abdominal injuries, HDL 55 mg/dl; combination of 150 mg/day anacetrapib and LCAT injection (40 mg) every 5 days
Text: Measurement of biomarker levels and parameters described above may be measured using methods that are well known in the art. For example, change in HDL-CE level is easily detected with standard clinical laboratory procedures. Likewise, measuring the adrenal response to ACTH is commonly used in patients with suspected adrenal insufficiency. One of ordinary skill in the art would understand the significance of the results and may choose to adjust the dose based on assessments such as those described above.
A patient is admitted into the hospital for major surgery. The patients HDL-C level is 25 mg/dl. […] The patient is administered a dose of LCAT of 40 mg 24 hours prior to surgery. The patient's HDL-C is measured prior to surgery, and is now above 50 mg/di, thus greatly reducing risk of infection and/or death following the procedure.
A burn victim is stabilized in the hospital with an HDL-C level of 12 mg/dl. […] The patient is infused with rHDL at a dose of 25 mg/kg over a period of 5 hours, raising the patient's HDL-C by 50 mg/dl. In order to maintain this level of HDL, the patient is administered a 60 mg dose of LCAT. Cortisol levels are monitored periodically to determine if the adrenal function is normalized. […]
A patient is beginning to enter septic shock. […] Cortisol levels are monitored to determine if the adrenal function is normalized. […]

Molecule	patient's HDL maintained throughout recovery [mg/dL]
COc1cc(F)c(C(C)C)cc1-c1ccc(C(F)(F)F)cc1CN1C(=O)O[C@H](c2cc(C(F)(F)F)cc(C(F)(F)F)c2)[C@@H]1C [anacetrapib]	> 75
lecithin-cholesterol acyltransferase [LCAT]	> 75
